The results in this text go back to paper PMC4673491.

By UniProt entry, the sequences of proteins in these tests, tags left out. Where a name states a change or a piece, a line headed by the entry shows the natural chain unless it says otherwise.
UniProt P55085: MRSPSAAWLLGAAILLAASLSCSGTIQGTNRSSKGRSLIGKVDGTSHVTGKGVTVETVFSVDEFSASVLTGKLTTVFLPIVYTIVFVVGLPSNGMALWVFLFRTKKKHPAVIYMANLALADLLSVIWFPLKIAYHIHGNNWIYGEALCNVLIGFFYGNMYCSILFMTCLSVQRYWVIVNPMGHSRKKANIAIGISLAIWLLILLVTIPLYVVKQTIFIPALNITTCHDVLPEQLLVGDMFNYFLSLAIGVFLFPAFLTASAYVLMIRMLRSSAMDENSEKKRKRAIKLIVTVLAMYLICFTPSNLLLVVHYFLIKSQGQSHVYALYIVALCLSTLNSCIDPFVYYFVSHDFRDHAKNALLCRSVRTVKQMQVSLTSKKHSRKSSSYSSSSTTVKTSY

This experiment has as its target T1, GST-PH-Vav3 (UniProt Q9UKW4).
T1 sequence: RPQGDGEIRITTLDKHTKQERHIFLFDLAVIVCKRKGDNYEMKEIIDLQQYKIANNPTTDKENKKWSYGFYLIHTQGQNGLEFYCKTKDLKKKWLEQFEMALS
Description: pull-down; lysates of HEK293T cells overexpressing PAR2 mutants or deletion constructs added to GST-PH-Etk/Bmx, GST-PH-Akt or GST-PH-Vav3; only the target purified.

Results are given in words; binding and its absence hold for the method and conditions named. Binding seen in cells or lysates may run through a third protein. Some results given as binding are weak or reduced against the parent protein; the word gives no strength. Sequences can lack the tags named with a protein.

As to “hPar2 K368Z (from UniProt P55085 26-367) (domain or fragment)”, the binding entry was “binds”. To “hPar2-K356Z (from UniProt P55085 26-355) (domain or fragment)” belongs “binds”.
